PubChem BioAssay AID504791, Drosophila RNAi Screening Center, 2011

Assay: 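Factors in Argonaute-based small RNA production and activity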 (primary screen)
System: Drosophila S2-derived reporter cells
Knock-down reagent: long dsRNA against Drosophila genes, about 150-250 ng dsRNA per well (siRNA assay); about 80-120 ng (miRNA assay)
Duration: about 5 days (siRNA assay); about 4 days (miRNA assay)
Challenge: copper sulfate induction of reporters: 25 µM (siRNA assay); 200 mM stated (miRNA assay), 1-2 days before reading
Detection: 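Per-well ratio of Renilla over firefly light, expressed relative to that plate's average ratio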
Scale: siRNA reporter hit score: higher = 3 marks a strong hit with raised ratio; -3 a strong hit with lowered ratio
Hit rule: 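a well was a first-pass pick when its plate-scaled ratio rose above 1.5 (siRNA assay) or 1.6 (miRNA assay), or dropped below 0.6; a gene counted only if two separate dsRNAs agreed on retest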
The screen tested about 23,000 reagents; shown is a random part of those with a known target gene and a result. Of all reagents, 199 (0.86%) are marked active. 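Plate-scaled ratios behind the calls are not deposited; printed light signals are raw; many rows marked increased or decreased are still called inactive.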 Unmarked entries are inactive. A plus sign joins genes that one reagent is predicted to hit. Reagent sequences are not shown.

predicted target | DRSC id | siRNA reporter hit score | stable siRNA reporter change | miRNA reporter change | stable assay Renilla, run 1 (luminescence) | stable assay firefly, run 1 (luminescence)
Or85b | DRSC16765 | – | – | – | 8031 | 4.73e5
CG14856 | DRSC14980 | – | – | – | 6572 | 3.27e5
CG15125 | DRSC06547 | – | – | – | 5188 | 3.15e5
AGBE | DRSC06861 | – | – | – | 9162 | 4.94e5
HisCl1 | DRSC14945 | – | – | – | 8032 | 3.64e5
Jhbp7 | DRSC14408 | – | – | – | 6967 | 3.72e5
CCHa1 | DRSC14821 | – | – | – | 4956 | 2.50e5
CG12057 | DRSC17797 | – | – | – | 6266 | 4.38e5
CG5334 | DRSC19941 | – | – | – | 5611 | 4.00e5
cni | DRSC03512 | – | reporter ratio lowered past the hit cutoff | – | 6696 | 6.67e5
Prp18 | DRSC16802 | – | – | – | 9296 | 3.81e5
RpL28 + snoRNA:Or-CD12 | DRSC08293 | – | – | – | 5214 | 2.57e5
RpS12 | DRSC11270 | – | – | – | 10662 | 4.42e5
RpS27A | DRSC03421 | – | – | – | 7923 | 3.86e5
step | DRSC03694 | – | – | – | 7848 | 6.00e5
step | DRSC03699 | 3 | – | – | 6398 | 4.05e5
CG7551 | DRSC10876 | – | – | – | 7034 | 3.22e5
mRpL10 | DRSC00312 | – | – | – | 11641 | 5.02e5
Hsp68 | DRSC16712 | – | – | – | 7166 | 4.17e5
CG42813 + CG42814 | DRSC15939 | – | – | – | 7388 | 3.84e5
CG42813 + CG42814 | DRSC15940 | – | – | – | 6708 | 3.87e5
DIP-epsilon | DRSC00932 | – | – | – | 4831 | 4.51e5
DIP-epsilon | DRSC02313 | – | – | – | 9885 | 6.28e5
CG9782 | DRSC19145 | – | – | – | 5191 | 4.15e5
CG9782 | DRSC20209 | – | – | – | 6256 | 5.20e5
CG5080 | DRSC00677 | – | – | – | 32134 | 1.57e5
CG12129 | DRSC06105 | – | – | – | 8260 | 3.61e5
Dnz1 | DRSC03317 | – | – | – | 6598 | 6.45e5
uex | DRSC20784 | – | – | – | 5190 | 3.19e5
uex | DRSC20786 | – | – | – | 6166 | 4.49e5
CG33958 | DRSC06472 | – | – | – | 6552 | 3.42e5
CG33958 | DRSC06944 | – | – | – | 7350 | 2.99e5
fd3F (retired record) + Crg-1 | DRSC17283 | – | – | – | 8159 | 4.78e5
CG12278 | DRSC14494 | – | – | – | 6183 | 3.09e5
Amy-p | DRSC06786 | – | – | – | 6983 | 3.47e5
ktub | DRSC04551 | – | – | – | 28885 | 1.30e6
CG14300 | DRSC14779 | – | – | – | 7279 | 3.05e5
numb | DRSC03584 | – | – | – | 8226 | 1.08e6
Snmp1 | DRSC16168 | – | – | – | 7028 | 5.00e5
CG3527 | DRSC18307 | – | – | – | 4831 | 2.88e5
CG4553 | DRSC15595 | – | – | – | 6558 | 4.02e5
lncRNA:CR42862 + CG33229 | DRSC08497 | – | – | – | 11542 | 4.63e5
Mlf | DRSC07472 | – | reporter ratio lowered past the hit cutoff | – | 4551 | 4.28e5
Cpr72Eb | DRSC09870 | – | – | – | 7592 | 5.03e5
CG6602 | DRSC10673 | – | – | – | 7290 | 5.22e5
noi | DRSC12383 | – | – | – | 10270 | 8.32e5
noi | DRSC26152 | – | – | reporter ratio lowered past the hit cutoff (active) | – | –
CG31688 | DRSC02682 | – | – | – | 7264 | 4.79e5
NimC1 | DRSC01879 | – | – | – | 7779 | 3.66e5
Psc | DRSC07518 | – | – | – | 5898 | 4.52e5
CG11345 | DRSC08176 | – | – | – | 6167 | 4.96e5
fd102C | DRSC17203 | – | – | – | 7439 | 3.16e5
CG3502 + CG9863 | DRSC04578 | – | – | – | 6664 | 3.60e5
Manf | DRSC14091 | – | – | – | 7236 | 3.42e5

Reformatted: 12 of the entries above.
predicted target	DRSC id	siRNA reporter hit score	stable siRNA reporter change	miRNA reporter change	stable assay Renilla, run 1 (luminescence)	stable assay firefly, run 1 (luminescence)
CCHa1	DRSC14821				4956	2.50e5
CG12057	DRSC17797				6266	4.38e5
CG5334	DRSC19941				5611	4.00e5
cni	DRSC03512		reporter ratio lowered past the hit cutoff		6696	6.67e5
Prp18	DRSC16802				9296	3.81e5
RpL28 + snoRNA:Or-CD12	DRSC08293				5214	2.57e5
RpS12	DRSC11270				10662	4.42e5
RpS27A	DRSC03421				7923	3.86e5
step	DRSC03694				7848	6.00e5
step	DRSC03699	3			6398	4.05e5
CG7551	DRSC10876				7034	3.22e5
mRpL10	DRSC00312				11641	5.02e5

Continued.
predicted target | DRSC id | siRNA reporter hit score | stable siRNA reporter change | miRNA reporter change | stable assay Renilla, run 1 (luminescence) | stable assay firefly, run 1 (luminescence)
Art1 | DRSC16063 | – | – | – | 9347 | 4.73e5
CG10265 | DRSC05986 | – | – | – | 8439 | 5.69e5
CG10265 | DRSC21680 | – | – | – | 9602 | 5.65e5
Cpr49Af | DRSC07202 | – | – | – | 6207 | 3.17e5
CG31278 | DRSC16051 | – | – | – | 6744 | 4.22e5
MED15 | DRSC00267 | -3 | – | reporter ratio raised past the hit cutoff | 11477 | 2.48e5
CG31789 | DRSC01645 | – | – | – | 5531 | 4.38e5
CG8388 | DRSC07157 | – | – | – | 5760 | 3.16e5
CG7215 + Prx5 | DRSC16214 | – | – | – | 8790 | 5.34e5
CG7215 + Prx5 | DRSC16215 | – | – | – | 11391 | 4.93e5
ATPsynCF6 | DRSC14092 | – | – | – | 5766 | 3.09e5
CG33648 | DRSC01387 | – | – | – | 5210 | 3.73e5
CG14329 | DRSC14808 | – | – | – | 5799 | 2.99e5
CG9839 | DRSC16574 | – | – | – | 8332 | 5.49e5
Fcp1 | DRSC04121 | – | – | – | 1.81e5 | 1.70e6
Fcp1 | DRSC26715 | – | – | reporter ratio lowered past the hit cutoff (active) | – | –
qin | DRSC14782 | – | – | – | 9296 | 5.33e5
CG7300 | DRSC03044 | – | – | – | 6488 | 1.06e6
CG7300 | DRSC28239 | – | – | reporter ratio raised past the hit cutoff | – | –
Lsm11 | DRSC06238 | – | – | – | 5304 | 3.93e5
Gyc76C + CG42637 | DRSC11180 | – | – | – | 8801 | 3.53e5
Vav | DRSC20384 | – | – | reporter ratio lowered past the hit cutoff | 5854 | 5.10e5
Atu | DRSC12123 | -3 | – | – | 6279 | 3.71e5
CG12541 | DRSC17483 | – | – | – | 5315 | 4.11e5
CG12541 | DRSC17839 | – | – | – | 6131 | 4.38e5
Ugt36E1 | DRSC02599 | – | – | – | 8064 | 1.96e6
CG12147 | DRSC12192 | – | – | – | 5703 | 3.66e5
CG17683 | DRSC21160 | – | – | – | 5527 | 3.21e5
Hr3 | DRSC06118 | – | – | – | 4107 | 1.81e5
Hr3 | DRSC07441 | – | – | reporter ratio raised past the hit cutoff | 10213 | 4.12e5
